Measured values from article PMC7862700.
This is a selection; strong and weak results do not stand in their true shares. For part of these data: At the low end of the ranking, values are background and their order means little. The list shows a part of the results. For part of these data: The source does not settle which construct or isoform was used.

Chains of the proteins cited; added tags and fusions are not shown. Lines headed by an entry give the natural chain unless they say otherwise; changes in a name come on top.
UniProt P50549: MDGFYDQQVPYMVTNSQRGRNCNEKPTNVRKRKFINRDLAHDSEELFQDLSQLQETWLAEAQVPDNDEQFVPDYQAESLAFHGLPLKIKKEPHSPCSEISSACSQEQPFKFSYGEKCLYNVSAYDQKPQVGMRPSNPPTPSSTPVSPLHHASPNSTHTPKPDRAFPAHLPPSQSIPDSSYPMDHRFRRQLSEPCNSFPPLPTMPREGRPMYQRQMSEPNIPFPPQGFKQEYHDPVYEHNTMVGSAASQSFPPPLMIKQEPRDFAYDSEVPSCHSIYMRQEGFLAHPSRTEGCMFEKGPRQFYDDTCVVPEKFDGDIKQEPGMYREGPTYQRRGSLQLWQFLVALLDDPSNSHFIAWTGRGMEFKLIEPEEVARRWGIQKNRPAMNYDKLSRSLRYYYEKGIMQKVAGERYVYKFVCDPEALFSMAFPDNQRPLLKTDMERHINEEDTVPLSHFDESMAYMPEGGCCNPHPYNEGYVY

Tests used:
Experiment in all cases: DAPPL (digital affinity profiling via proximity ligation, sequencing)
Conditions in all cases: 10 mM Tris-HCl pH 7.5, 50 mM NaCl, 1 mM DTT, 4% glycerol, room temperature, 30 min; GST-TFs on glutathione beads, 16-mer random dsDNA library, 0.1% …; high values mean tight binding; double strand, one strand shown; scale: fold enrichment (6-mer frequency, TF over GST control)
ELK4 = molecular target: T1, ELK4 (UniProt P28324-2)
T1 sequence: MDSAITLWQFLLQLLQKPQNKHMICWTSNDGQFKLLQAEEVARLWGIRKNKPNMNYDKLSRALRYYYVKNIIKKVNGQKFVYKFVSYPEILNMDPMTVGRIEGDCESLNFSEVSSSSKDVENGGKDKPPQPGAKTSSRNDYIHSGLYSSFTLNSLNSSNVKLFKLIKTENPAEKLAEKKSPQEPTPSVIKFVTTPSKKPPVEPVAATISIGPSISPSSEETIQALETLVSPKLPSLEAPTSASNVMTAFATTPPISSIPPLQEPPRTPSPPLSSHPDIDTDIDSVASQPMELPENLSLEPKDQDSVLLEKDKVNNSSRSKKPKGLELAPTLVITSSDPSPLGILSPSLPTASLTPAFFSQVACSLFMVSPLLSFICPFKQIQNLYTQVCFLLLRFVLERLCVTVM

ETV4 = molecular target: T2, ETV4 (UniProt P43268)
T2 sequence: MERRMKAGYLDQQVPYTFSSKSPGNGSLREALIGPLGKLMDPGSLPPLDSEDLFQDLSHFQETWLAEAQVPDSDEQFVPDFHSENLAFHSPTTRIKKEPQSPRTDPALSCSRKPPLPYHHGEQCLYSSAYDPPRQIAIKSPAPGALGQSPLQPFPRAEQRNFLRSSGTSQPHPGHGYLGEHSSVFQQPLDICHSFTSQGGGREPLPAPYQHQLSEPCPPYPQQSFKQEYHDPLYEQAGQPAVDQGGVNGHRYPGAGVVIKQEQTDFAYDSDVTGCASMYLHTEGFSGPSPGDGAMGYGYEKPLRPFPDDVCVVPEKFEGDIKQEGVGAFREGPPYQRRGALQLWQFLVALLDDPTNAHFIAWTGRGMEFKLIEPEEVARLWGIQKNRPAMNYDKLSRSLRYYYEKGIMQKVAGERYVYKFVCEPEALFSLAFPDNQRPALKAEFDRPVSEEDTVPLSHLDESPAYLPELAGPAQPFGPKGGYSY

ERG = molecular target: T3, ERG (UniProt P11308)
T3 sequence: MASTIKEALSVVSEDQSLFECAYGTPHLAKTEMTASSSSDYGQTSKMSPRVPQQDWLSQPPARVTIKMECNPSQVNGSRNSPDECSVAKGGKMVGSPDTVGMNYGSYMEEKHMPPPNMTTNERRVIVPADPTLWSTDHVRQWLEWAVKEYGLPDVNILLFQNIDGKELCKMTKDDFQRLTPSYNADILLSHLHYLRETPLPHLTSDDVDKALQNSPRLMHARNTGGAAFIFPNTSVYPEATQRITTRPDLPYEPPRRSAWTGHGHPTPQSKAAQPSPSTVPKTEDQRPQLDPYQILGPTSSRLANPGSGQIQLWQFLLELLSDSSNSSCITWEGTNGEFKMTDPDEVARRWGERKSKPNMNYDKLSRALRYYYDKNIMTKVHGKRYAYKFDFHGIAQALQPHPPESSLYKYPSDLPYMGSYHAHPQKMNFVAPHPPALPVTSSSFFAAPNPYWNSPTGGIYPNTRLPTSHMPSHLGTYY

ETV1 = ETV1 (UniProt P50549)
ERF = molecular target: T4, ERF (UniProt P50548)
T4 sequence: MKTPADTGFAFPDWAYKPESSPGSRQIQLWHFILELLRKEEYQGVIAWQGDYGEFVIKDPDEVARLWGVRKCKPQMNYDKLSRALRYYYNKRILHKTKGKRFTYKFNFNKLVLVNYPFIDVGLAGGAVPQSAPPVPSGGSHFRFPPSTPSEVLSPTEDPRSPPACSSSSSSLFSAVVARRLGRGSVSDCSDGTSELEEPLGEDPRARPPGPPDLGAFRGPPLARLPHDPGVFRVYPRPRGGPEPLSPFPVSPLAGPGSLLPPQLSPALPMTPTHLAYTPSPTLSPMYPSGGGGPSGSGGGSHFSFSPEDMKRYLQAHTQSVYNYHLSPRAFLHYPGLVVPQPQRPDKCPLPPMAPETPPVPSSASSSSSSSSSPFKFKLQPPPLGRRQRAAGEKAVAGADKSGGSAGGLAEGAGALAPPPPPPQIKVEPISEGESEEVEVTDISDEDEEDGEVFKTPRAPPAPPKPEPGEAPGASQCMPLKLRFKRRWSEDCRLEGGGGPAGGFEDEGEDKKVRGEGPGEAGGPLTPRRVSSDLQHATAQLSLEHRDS

Sequence	binding signal (ELK4)	binding signal (ETV4)	binding signal (ERG)	binding signal (ETV1)	binding signal (ERF)
TTTCTA	1.34	1.4	–	–	–
AATCAG	1.16	1.07	1.07	–	–
CTTAAT	1.22	1.32	–	–	–
GATGGG	1.01	1	0.998	–	–
TCAATT	1.08	1.22	–	–	–
AAATCA	1.23	1.19	–	–	–
GCTGCG	0.991	1.11	–	–	–
CTGACG	1.11	0.974	1.06	–	–
GGTAAA	1.11	1.05	–	–	–
CATACG	1.07	1.07	1.06	–	–
TTACCT	1.32	1.26	1.17	–	–
TTACTT	1.33	1.52	–	–	–
TGCGGC	0.935	1.06	0.951	–	–
TAGTGT	1.4	1.08	–	–	–
CACAAA	0.991	1.05	1.12	–	–
CAGGAA	1.37	1.56	1.83	–	–
CAAGAA	0.916	0.993	1.11	–	–
CCCACC	1.26	1.21	–	–	–
CCAATT	1.09	1.24	–	–	–
GCATCT	0.954	1.06	0.927	–	–
ATAGGC	0.935	0.994	1.01	–	–

Sequence	binding signal (ELK4)	binding signal (ETV4)	binding signal (ERG)	binding signal (ETV1)	binding signal (ERF)
AATCAC	1.11	1.09	1.08	–	–
ATAAGC	0.981	1.02	1.08	–	–
TTTGAT	1.2	1.39	1.3	–	–
CAATGA	1.12	1.01	1.03	–	–
CAACCG	0.974	1.15	–	–	–
TCTAGA	0.974	0.961	–	–	–
TAACCG	0.987	1.03	1.06	–	–
GCCCCC	1.18	1.18	1.03	–	–
CCGGAC	1.15	1.7	1.74	–	–
GCTCTC	1.56	1.46	1.42	–	–
GTTTTT	1.32	1.26	–	–	–
GCTTAC	1.1	1.18	–	–	–
GTCCAT	1.18	1.12	–	–	–
TTCCTA	1.52	1.63	1.78	–	–
AATGTT	1.46	1.53	–	–	–
AACCGC	0.981	1.05	1.09	–	–
CACTCA	1.17	1.16	1.16	–	–
TCTGGA	0.954	1.06	1.04	–	–
CTCGCG	1.59	1.57	1.42	–	–
TAGCAG	0.989	1.09	1.11	–	–
ATCAAC	1.14	1.13	1.07	–	–

As a short view, some entries already given:
Sequence	binding signal (ELK4)	binding signal (ETV4)	binding signal (ERG)	binding signal (ETV1)	binding signal (ERF)
CATACG	1.07	1.07	1.06	–	–
TTACCT	1.32	1.26	1.17	–	–

The listing continues:

Sequence	binding signal (ELK4)	binding signal (ETV4)	binding signal (ERG)	binding signal (ETV1)	binding signal (ERF)
GATCCC	1.2	1.25	1.23	–	–
GCCAAC	0.893	0.9	0.969	0.878	–
CAATTT	1.31	1.42	1.43	–	–
TGTCAT	1.08	1.15	1.11	1.18	–
CACCTA	1	1.09	0.978	0.979	–
CTACAG	1.07	1.12	1.03	–	–
ATACTC	1.23	1.28	1.3	–	–
TAGACT	0.856	1.03	1.05	–	–
CATCAC	1.29	1.26	1.15	1.1	–
AACACC	1.13	1.09	1.15	–	–
CCTGAA	1.41	1.39	1.41	1.38	–
AGTTCT	1.2	1.13	1.11	–	–
GCTGAC	1.05	1.09	0.988	–	–
CCACGT	1.01	1.02	0.945	1.01	–
CATTGT	1.17	1.15	1.12	–	–
ATAAAA	1.17	1.12	1.09	–	–
CATCAA	0.94	1.01	0.939	–	–
CCCTTG	1.2	1.25	1.23	–	–
TGATCG	1.13	1.07	0.99	–	–
GTGTCC	0.897	1.09	1.13	1.02	–
CGGCCC	0.97	0.925	0.903	0.87	–

Sequence	binding signal (ELK4)	binding signal (ETV4)	binding signal (ERG)	binding signal (ETV1)	binding signal (ERF)
AGTGTT	1.08	1.07	1.15	–	–
GGATGG	0.911	1.07	0.996	–	–
CGTACG	0.971	1.03	0.997	–	–
CATTGC	1.04	1.07	1.11	0.987	–
TTGGGC	1.05	1.12	1.07	–	–
GACCGG	0.893	1.21	1.31	–	–
TTTAGT	0.945	1.08	0.994	0.993	–
AAGTAG	1.06	1.23	1.24	–	–
ACGCCG	0.961	1.15	1.02	–	–
TTAGCC	0.97	1.03	0.952	–	–
AACCGA	0.996	1.06	0.97	0.965	–
TAAAAA	1.34	1.23	1.26	–	–
GCCTGA	1.07	1.04	0.971	–	–
CGCACA	0.999	1.01	1.02	–	–
GCCGAA	0.97	0.967	0.955	0.976	–
CATAGC	0.922	0.965	0.941	–	–
GATCAC	0.937	0.984	0.954	0.952	0.994
TAGGCA	0.967	1.01	1.06	0.964	0.968
TGATAG	1.02	0.947	0.993	0.95	1.04
GCTTAA	0.981	1.02	0.944	0.953	–
